PubChem BioAssay AID1671195 | Yale University – 2021
Purpose: 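Genes whose knockdown alters LDL uptake in liver cancer cells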 (primary screen). System: human Huh7 hepatoma cells. Reagent: siRNA pool against human genes, 18 nM. Duration: about 2 to 2.5 days of knockdown, then 8 h LDL uptake. Treatment: DiI-labelled LDL at 30 µg/ml for 8 h, in lipoprotein-deficient serum medium. Measured: 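Per-cell DiI-LDL intensity by automated imaging; well means scaled to the plate median and given as a robust z-score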. Scale: robust z-score: higher = more LDL uptake after knockdown. Rule for the call: 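a gene counts as active if at least two replicate z-scores exceed ±2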.
The whole screen tested about 22,000 reagents; this is a random part of them. In the full data, about 1,510 (6.9%) got an active call. 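Active includes knockdowns raising or lowering LDL uptake; positive z-scores mean more uptake, negative mean less.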 Reagents against one gene are numbered here.

target	pool no.	robust z-score, replicate 1	robust z-score, replicate 2	robust z-score, replicate 3	Call
MUC12	1	0.582	0.876	0.271	inactive
MUC12	2	0.563	-0.019	0.204	inactive
TNRC6B	1	-1.24	0.264	-0.433	inactive
KAZN	1	-0.166	0.205	-0.251	inactive
KAZN	2	-0.194	-0.789	0.461	inactive
EGR2	1	0.485	1.26	0.321	inactive
N4BP2L1	1	1.52	1.06	2.6	inactive
LOC387905 (retired record)	1	2.01	1.94	1.65	active
PRR14	1	-0.644	-0.107	0.314	inactive
ZNF555	1	2.28	1.47	4.07	active
PRSS3	1	0.436	-0.609	0.902	inactive
CPLX1	1	-0.485	-0.106	0.096	inactive
PPIAP35	1	0.374	-0.206	1.46	inactive
MXI1	1	-0.455	-0.609	-0.523	inactive
BCAS3	1	-0.944	-1.22	0.366	inactive
UBL4B	1	0.41	0.581	-0.00801	inactive
ACAA2	1	0.376	1.42	0.594	inactive
HOXD10	1	0.242	1.31	0.735	inactive
SPHK1	1	0.26	-0.396	-0.165	inactive
LINC02877	1	-1.12	-1.47	-1.07	inactive
TNFRSF19	1	0.108	-0.132	-0.168	inactive
RPL13AP17	1	-0.35	-0.204	-0.275	inactive
KRTAP10-11	1	1.1	0.11	0.435	inactive
DRD1	1	-0.303	0.807	0.201	inactive
BTN2A1	1	-1.26	-1.49	-1.57	inactive
XCR1	1	-0.742	-1.45	-1.22	inactive
NUDT11	1	-0.145	0.358	1.34	inactive
MIPEP	1	0.947	0.363	0.415	inactive
KLF12	1	-0.226	0.191	0.0497	inactive
PLXNC1	1	1.53	1.18	0.818	inactive
XRCC5	1	0.569	0.569	0.0918	inactive
RBM18	1	0.795	-0.909	0.0714	inactive
C12orf57	1	-0.431	0.0822	0.0854	inactive
CTDP1-DT	1	-0.687	-0.435	-0.269	inactive
ZNF761	1	-1.57	-1.03	-1.11	inactive
LOC401026 (retired record)	1	-0.447	-0.911	-0.369	inactive
NFXL1	1	-0.988	-1.06	-1.01	inactive
TOGARAM1	1	0.549	3.58	1.05	inactive
GRK5	1	-0.544	-1.4	-1.36	inactive
GABRA1	1	0.0529	0.539	0.178	inactive
MELK	1	0.286	0.702	0.181	inactive
LOC442602 (retired record)	1	-1.02	-1.16	-4.11	inactive
LOC442141 (retired record)	1	-0.0103	-0.434	-0.257	inactive
GBP4	1	-0.733	0.971	0.0243	inactive
DOCK11	1	0.494	0.423	0.546	inactive
PLD4	1	1.6	0.874	0.598	inactive
C11orf65	1	-1.46	0.0382	-0.642	inactive
LOC440981 (retired record)	1	-0.522	0.0397	-0.278	inactive
LIPF	1	-0.755	-0.343	-0.342	inactive
CD59	1	0.0558	0.923	2.44	inactive
ADPRS	1	-0.556	-0.876	-1.09	inactive
CASKIN2	1	0.0464	1.74	2.45	inactive
TOP3A	1	-0.175	1.08	0.755	inactive
DMRT1	1	-0.105	0.113	-0.147	inactive
PDZD8	1	0.674	1.04	0.0529	inactive
UPF3A	1	1.23	0.566	0.589	inactive
LOC387791 (retired record)	1	4.07	5.33	4.08	active
LOC439959 (retired record)	1	0.168	0.109	0.464	inactive
SCARA3	1	0.886	-0.0617	0.325	inactive
IPPK	1	1.49	-0.506	0.00849	inactive
SERINC5	1	0.569	0.763	0.227	inactive
CUTC	1	0.861	-0.131	0.733	inactive
KRT34	1	-0.0355	1.13	0.782	inactive
FADS6	1	0.897	0.917	1.48	inactive
NFATC2	1	0.359	0.285	0.188	inactive
THYN1	1	0.53	-0.833	0.351	inactive
ENOPH1	1	2.16	1.53	2.41	active
FANCC	1	-1.54	-0.137	-1.53	inactive
PHB1	1	-0.75	-0.885	-1.71	inactive
LOC440919 (retired record)	1	2.57	2.69	2.74	active
KBTBD13	1	0.872	1.44	0.812	inactive
TTC5	1	0.477	0.435	0.774	inactive
LOC388345 (retired record)	1	1.17	1.94	1.32	inactive
LHX4	1	0.399	2.42	0.848	inactive
LOC441103 (retired record)	1	-0.135	-0.544	-0.355	inactive
MYO5A	1	-0.618	-0.643	-0.33	inactive
TRIP10	1	-1.4	-1.69	-1.64	inactive
ZNF496	1	-1.5	-1.83	-1.61	inactive
PCDHA4	1	-0.00238	0.168	0.101	inactive
LINC02347	1	-0.136	-1	-0.064	inactive
PYY	1	-0.417	-0.129	0.211	inactive
RRAGB	1	0.919	-0.667	0.426	inactive
CNEP1R1	1	0.829	1.26	0.783	inactive
MON1B	1	0.617	0.635	1.12	inactive
LOC388638 (retired record)	1	-1.05	-1.19	-1.51	inactive
PELI2	1	1.93	2.39	0.685	active
SMCO2	1	1.83	1.21	1.59	inactive

Copied from the listing for reference:
target	pool no.	robust z-score, replicate 1	robust z-score, replicate 2	robust z-score, replicate 3	Call
TNFRSF19	1	0.108	-0.132	-0.168	inactive
RPL13AP17	1	-0.35	-0.204	-0.275	inactive
KRTAP10-11	1	1.1	0.11	0.435	inactive
DRD1	1	-0.303	0.807	0.201	inactive
BTN2A1	1	-1.26	-1.49	-1.57	inactive
XCR1	1	-0.742	-1.45	-1.22	inactive
NUDT11	1	-0.145	0.358	1.34	inactive
MIPEP	1	0.947	0.363	0.415	inactive
KLF12	1	-0.226	0.191	0.0497	inactive
PLXNC1	1	1.53	1.18	0.818	inactive
XRCC5	1	0.569	0.569	0.0918	inactive
